# Experimental data: PubChem BioAssay AID330 (DTP/NCI, 2004)
# The list is a part of this screen's results and no random one: it is rich in T/C values a quarter to a half above the control, in often repeated tests (any T/C) and in doses without a T/C. Further doses and runs are listed elsewhere. T/C is the treated group as % of the vehicle group. Some entries give survivors of the animals treated and no T/C: the source files T/C as zero there, which appears to mark a toxic dose or a test without result, not a measured value. Some doses without a T/C left all or most animals alive at the check, yet need not have been tolerated: survival well below the control is almost never listed, so the zero probably covers shortened survival too. Counts of survivors are from the toxicity check (mostly the fifth day) where no day follows; animals may have died later. Schedules are NCI's codes, read here as Q, the interval in days (D) or hours (H), X, the number of doses. Some entries were tested several times; the values are given in rising order. For survival time, this PubChem deposit counts one and a half times the control or more as active, and values a quarter to a half above the control carry no call in these data; other NCI protocols may use other cut-offs. Some T/C values carry the count of animals alive at the toxicity check (mostly the fifth day); without a count, all were alive then. Marks such as (2×) count equal records among those shown.
# Tested on: P388 leukemia ip, CD2F1 mice, survival T/C
# Assay: NCI In Vivo Anticancer Drug Screen. Data for tumor model P388 Leukemia (intraperitoneal) in CD2F1 (CDF1) mice
# Conditions: T/C endpoint: median survival time, higher T/C = longer survival
# [1] = dose: 50.0 mg/kg/injection, schedule: Q01DX005 (ip), vehicle: Klucel (hydroxypropylcellulose) (HPC)
# [2] = dose: 50.0 mg/kg/injection, schedule: Q04DX003 (ip), vehicle: Klucel (hydroxypropylcellulose) (HPC)
# [3] = dose: 100.0 mg/kg/injection, schedule: Q01DX005 (ip), vehicle: Klucel (hydroxypropylcellulose) (HPC)
# [4] = dose: 100.0 mg/kg/injection, schedule: Q04DX003 (ip), vehicle: Klucel (hydroxypropylcellulose) (HPC)
# [5] = dose: 200.0 mg/kg/injection, schedule: Q01DX005 (ip), vehicle: Klucel (hydroxypropylcellulose) (HPC)
# [6] = dose: 200.0 mg/kg/injection, schedule: Q01DX009 (ip), vehicle: Klucel (hydroxypropylcellulose) (HPC)
# [7] = dose: 200.0 mg/kg/injection, schedule: Q01DX009 (ip), vehicle: saline with Tween-80
# [8] = dose: 200.0 mg/kg/injection, schedule: Q04DX002 (ip), vehicle: Klucel (hydroxypropylcellulose) (HPC)
# [9] = dose: 200.0 mg/kg/injection, schedule: Q04DX003 (ip), vehicle: Klucel (hydroxypropylcellulose) (HPC)
# [10] = dose: 400.0 mg/kg/injection, schedule: Q04DX003 (ip), vehicle: Klucel (hydroxypropylcellulose) (HPC)
# [11] = dose: 100.0 mg/kg/injection, schedule: Q01DX009 (ip), vehicle: distilled water + Tween-80
structure (smiles),measurement,setting,value
Nc1n[nH]c(N)n1,T/C,"dose: 50.0 mg/kg/injection, schedule: Q01DX001 (ip), vehicle: Klucel (hydroxypropylcellulose) (HPC)","87, 92, 95, 98, 100 (5×), 101 (4×), 102, 103 (2×), 104, 104 [5 of 6 alive], 105 (3×), 106 (4×), 109 (3×), 110, 120 (2×), 130 % of control"
same,T/C,[1],"89 [2 of 3 alive], 92, 95, 96 (2×), 97 (3×), 98 (3×), 99 (2×), 100, 101 (2×), 102 (2×), 103 (2×), 104, 105 (3×), 106 (3×), 107 (2×), 108, 112 (2×), 116, 130, 131 % of control"
same,survivor count,[1],5 of 6
same,T/C,"dose: 50.0 mg/kg/injection, schedule: Q01DX009 (ip), vehicle: Klucel (hydroxypropylcellulose) (HPC)","90, 93, 95, 96, 98 (2×), 99 (4×), 100 (3×), 101 (3×), 102 (3×), 104 (3×), 105, 106, 107, 109, 110 (3×), 112, 116, 117, 119, 122 % of control (2×)"
same,T/C,"dose: 50.0 mg/kg/injection, schedule: Q04DX002 (ip), vehicle: Klucel (hydroxypropylcellulose) (HPC)","88, 89, 90, 93, 95, 98, 99 (4×), 100 (6×), 101, 102 (3×), 103, 104 (3×), 105, 106 (4×), 107, 108 (2×), 112 (2×), 115 % of control"
same,T/C,[2],"88, 90, 91, 94 (2×), 96, 99, 100 (4×), 100 [5 of 6 alive], 101 (2×), 102 (3×), 104 (4×), 105 (4×), 106 (2×), 108, 110 (3×), 113, 116, 117 % of control"
same,survivor count,[2],"5 of 6, 3 of 3, 6 of 6"
same,T/C,"dose: 100.0 mg/kg/injection, schedule: Q01DX001 (ip), vehicle: Klucel (hydroxypropylcellulose) (HPC)","92, 98, 99, 100 (2×), 100 [2 of 3 alive], 101 (2×), 102 (5×), 103 (2×), 104 (2×), 105 (3×), 106 (4×), 107, 108 (2×), 109 (2×), 110, 110 [5 of 6 alive], 115 % of control"
same,T/C,[3],"96, 97 [2 of 3 alive], 98, 99, 100, 101 (3×), 102 (2×), 103, 105 (4×), 106, 107, 108, 109 (3×), 110 (2×), 111 (2×), 112 (2×), 112 [2 of 3 alive], 113, 114 (2×), 117, 124 [4 of 6 alive], 129 % of control"
same,survivor count,[3],2 of 3 and 6 of 6
same,T/C,"dose: 100.0 mg/kg/injection, schedule: Q01DX009 (ip), vehicle: Klucel (hydroxypropylcellulose) (HPC)","93, 96, 98 (2×), 100 (3×), 101, 102 (3×), 102 [2 of 2 alive], 103 (3×), 104, 105, 107 (3×), 108 (2×), 109 (2×), 112 (2×), 115, 116, 119 (2×), 121, 122 (2×), 128, 133 % of control"
same,T/C,"dose: 100.0 mg/kg/injection, schedule: Q04DX002 (ip), vehicle: Klucel (hydroxypropylcellulose) (HPC)","91, 95, 97, 98, 99, 100 (4×), 101 (2×), 102, 103 (2×), 104, 105, 106 (3×), 107 (7×), 108 (3×), 109, 110, 111, 116, 120, 129 % of control"
same,T/C,[4],"90, 94, 96, 99 (4×), 100 (4×), 102, 103, 104 (2×), 105 (3×), 106 (2×), 106 [5 of 6 alive], 108, 109 (2×), 110, 111 (2×), 111 [5 of 6 alive], 112, 113, 115, 117 % of control (2×)"
same,survivor count,[4],"2 of 3, 3 of 3, 6 of 6"
same,T/C,"dose: 200.0 mg/kg/injection, schedule: Q01DX001 (ip), vehicle: Klucel (hydroxypropylcellulose) (HPC)","87, 100 (3×), 101 (2×), 102, 103 (3×), 104 (4×), 105 (2×), 106 (3×), 107, 109 (3×), 110, 112, 113, 114 (2×), 115, 117, 128, 140 % of control"
same,T/C,[5],"95 [5 of 6 alive], 97, 101 [4 of 6 alive], 102 (2×), 105, 107, 108, 109, 110, 111, 112 (2×), 113, 114 (2×), 115 (3×), 116 (2×), 118 (2×), 119, 120 (3×), 121, 122 (2×), 125, 127, 128 [5 of 6 alive], 129, 144, 163 % of control"
same,T/C,[6],"95 [2 of 3 alive], 100 (2×), 102, 103, 104, 105 (2×), 106, 107, 108 (2×), 110 (2×), 111 (2×), 112, 113, 114, 116 [5 of 6 alive], 117, 118, 119 (2×), 120 (2×), 124, 127, 129, 130 (2×), 131, 132, 133, 138 % of control"
same,T/C,[7],127 % of control
same,T/C,[8],"94, 95 (3×), 98, 99, 100, 101 (2×), 103 (2×), 104 (5×), 105, 106, 107 (3×), 108 (3×), 109 (4×), 110, 111 (2×), 112, 116, 119 % of control"
same,survivor count,[8],3 of 3
same,T/C,[9],"91, 93, 94, 95, 97 (3×), 99, 100, 101 (2×), 103 (2×), 104 (3×), 105 (4×), 106 (2×), 107, 108 (2×), 109, 111 (2×), 112 (2×), 114, 116, 117, 120, 129 % of control"
same,survivor count,[9],3 of 3 and 6 of 6
same,T/C,"dose: 400.0 mg/kg/injection, schedule: Q01DX001 (ip), vehicle: Klucel (hydroxypropylcellulose) (HPC)","89, 99, 100 (4×), 101 (2×), 103, 104, 105 (2×), 106 (2×), 107 (2×), 109 (5×), 110 (2×), 111, 112, 115, 116, 118, 119, 120 % of control (3×)"
same,T/C,"dose: 400.0 mg/kg/injection, schedule: Q01DX005 (ip), vehicle: Klucel (hydroxypropylcellulose) (HPC)","101, 104 [5 of 6 alive], 107, 109 (2×), 110 [5 of 6 alive], 111, 112 (2×), 113, 114, 115, 115 [2 of 3 alive], 116, 116 [5 of 6 alive], 117 [2 of 3 alive], 120 (3×), 121, 122 (3×), 125 (2×), 127, 128 [5 of 6 alive], 129, 131 (3×), 132 (4×), 143 % of control"
same,T/C,"dose: 400.0 mg/kg/injection, schedule: Q01DX009 (ip), vehicle: Klucel (hydroxypropylcellulose) (HPC)","99 [4 of 6 alive], 102, 105, 114, 118, 119, 122 (2×), 123, 124 (2×), 125 (2×), 125 [5 of 6 alive], 126, 127, 128, 129, 130 (2×), 131 (4×), 135 (2×), 137 (2×), 138, 143, 144 (2×), 151, 152, 158 % of control"
same,T/C,"dose: 400.0 mg/kg/injection, schedule: Q01DX009 (ip), vehicle: saline with Tween-80",140 % of control
same,T/C,"dose: 400.0 mg/kg/injection, schedule: Q04DX002 (ip), vehicle: Klucel (hydroxypropylcellulose) (HPC)","95, 97, 100 (3×), 101 (4×), 102, 103 (4×), 105 (2×), 107 (3×), 108 (2×), 109 (4×), 111 (3×), 112 (2×), 113, 114, 115, 118, 122 % of control"
same,T/C,[10],"87, 96 [2 of 3 alive], 97, 98, 100 (2×), 101, 102, 103, 104 (2×), 105 (5×), 108 (2×), 109, 110 (3×), 111, 112 (2×), 113 (2×), 115, 116, 117 (2×), 120 (2×), 123 % of control (2×)"
same,survivor count,[10],3 of 3 and 6 of 6
CN1CNC(=O)NC1,T/C,"dose: 50.0 mg/kg/injection, schedule: Q01DX009 (ip), vehicle: saline",126 % of control
CC(=O)OCC1OC(n2cc(CI)nn2)C(OC(C)=O)C(OC(C)=O)C1OC(C)=O (centres undefined),survivor count,[11],3 of 6
Nc1nc(SCC(=O)O)[nH]c(=O)c1NS(=O)(=O)c1ccccc1,T/C,"dose: 240.0 mg/kg/injection, schedule: Q01DX005 (ip), vehicle: Klucel (hydroxypropylcellulose) (HPC)",125 % of control
C=C1C(=O)OC2C1CC(O)/C(C)=C\CCC1(C)OC21 (centres undefined),T/C,"dose: 60.0 mg/kg/injection, schedule: Q01DX009 (ip), vehicle: distilled water + Tween-80 + alcohol",130 % of control
same,T/C,"dose: 70.0 mg/kg/injection, schedule: Q01DX009 (ip), vehicle: distilled water + Tween-80 + alcohol",129 % of control
same,T/C,"dose: 80.0 mg/kg/injection, schedule: Q01DX009 (ip), vehicle: water",125 % of control
same,T/C,"dose: 90.0 mg/kg/injection, schedule: Q01DX009 (ip), vehicle: distilled water + Tween-80 + alcohol",148 % of control
same,survivor count,"dose: 90.0 mg/kg/injection, schedule: Q01DX009 (ip), vehicle: water",2 of 4
same,survivor count,"dose: 100.0 mg/kg/injection, schedule: Q01DX009 (ip), vehicle: distilled water + Tween-80 + alcohol",3 of 4 and 4 of 4
same,survivor count,"dose: 200.0 mg/kg/injection, schedule: Q01DX009 (ip), vehicle: distilled water + Tween-80 + alcohol",0 of 4
O=[N+]([O-])c1nccn1CCCl,survivor count,[11],3 of 6
same,survivor count,"dose: 200.0 mg/kg/injection, schedule: Q01DX009 (ip), vehicle: distilled water + Tween-80",0 of 6
[Cl][Sn]([c]1ccccc1)([c]1ccccc1)[c]1ccccc1,survivor count,"dose: 1.25 mg/kg/injection, schedule: Q01DX009 (ip), vehicle: saline",6 of 6
same,survivor count,"dose: 10.0 mg/kg/injection, schedule: Q01DX009 (ip), vehicle: saline",5 of 6
CC(=O)[O][Bi]([c]1ccccc1)[c]1ccccc1,T/C,"dose: 6.25 mg/kg/injection, schedule: Q01DX005 (ip), vehicle: Klucel (hydroxypropylcellulose) (HPC)",126 % of control
same,survivor count,"dose: 12.5 mg/kg/injection, schedule: Q01DX005 (ip), vehicle: Klucel (hydroxypropylcellulose) (HPC)",1 of 6
same,survivor count,"dose: 25.0 mg/kg/injection, schedule: Q01DX005 (ip), vehicle: Klucel (hydroxypropylcellulose) (HPC)",0 of 6 and 3 of 6
same,survivor count,[3],0 of 6
same,survivor count,[5],0 of 6
CCCCCOC(=O)c1ccccc1N,survivor count,[6],3 of 6
N#C/C(N)=C(/N)C#N,survivor count,"dose: 100.0 mg/kg/injection, schedule: Q01DX009 (ip), vehicle: saline with Tween-80","0 of 6, 1 of 6, 6 of 6"
same,survivor count,[7],0 of 6
CNC1CC(C)(O)Cc2cc3c(c(O)c21)C(=O)c1c(O)cc2c(c1C3=O)OC1OC2(C)C(O)C(N(C)C)C1O (centres undefined),T/C,"dose: 3.12 mg/kg/injection, schedule: Q01DX009 (ip), vehicle: other",129 % of control
same,T/C,"dose: 6.25 mg/kg/injection, schedule: Q01DX009 (ip), vehicle: other",142 % of control
same,survivor count,"dose: 50.0 mg/kg/injection, schedule: Q01DX009 (ip), vehicle: other",5 of 6
